Results on 35 compounds are retold here after PubChem BioAssay AID1487 (National Center for Advancing Translational Sciences (NCATS), 2009).

The list shows a part of the results. Shown are side measurements of this screen, not its main read-out; they come without a call. Most of these compounds were active or inconclusive in the main read-out, so they are no random draw. Words in brackets tell the shape of the fitted curve; partial curves, single points and poor fits give uncertain potencies.

A short description of this experiment: qHTS Assay for Modulators of Lamin A Splicing. The note with it: HeLa LMNA splicing GFP/RFP minigene ratio, 48 h. The procedure, abridged: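 S3 HeLa stable clones carrying a lamin A-EGFP splicing minigene plus DsRed2 were seeded at 600 cells/well in Opti-MEM with 2% FBS, pin-dosed and incubated 48 h at 37°C. Acumen cytometry (488 nm) gave the GFP/RFP total-intensity ratio.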
Background: Quantitative high-throughput screening tests each substance at several concentrations.

The mark [1] stands for this setting: measured here: RFP viability control channel.
Setting [2] is: measured here: GFP splicing reporter channel.

As usually defined, the AC50 is the concentration at which the activity in the assay is half-maximal. Turning to `O=C(Nc1ccc(Cl)cn1)C1CCCN1S(=O)(=O)c1ccccc1` (stereo unspecified), under setting [1], the AC50 is 28.2 µM [rising, single point].

For `COC1CC(O[C@H]2/C(C)=C/CC3CC(C[C@]4(CCC(C)C(C5CCCCC5)O4)O3)OC(=O)[C@H]3C=C(C)/C(=N/O)C4OC/C(=C\C=C\[C@@H]2C)[C@@]43O)OC(C)C1O` (stereo partly specified), the AC50 is, setting by setting: under setting [2], 0.00355 µM [falling, full curve, poor fit]; under setting [1], 31.6 µM [rising, single point].

Take `O=C(NCc1cccnc1)C1CCCN(S(=O)(=O)c2ccc(Br)cc2)C1` (stereo unspecified): the AC50 runs as follows: under setting [2], 35.5 µM [rising, single point]; under setting [1], 35.5 µM [rising, single point].

`CCCCC(CC)COC(=O)c1ccc(N(C)C)cc1` (stereo unspecified): the AC50 under setting [2] is 0.00398 µM [falling, full curve, poor fit] and the AC50 under setting [1] was 0.447 µM [falling, single point].

As to `COC(=O)c1ccc(Oc2cc(C)nc(SC)n2)cc1`, the AC50 under setting [1] was 4.47 µM [rising, single point].

`COC(=O)C1=C(C(=O)OC)[C@@H]2N(C)c3ccccc3[C@@]23C[C@@H](C(=O)OC)N(C(=O)C2CCC2)C3=N1`: the AC50 under setting [2] was 1.26 µM [rising, single point].

Take `CCCCCCCOC(=O)C1=C(C)Nc2ncnn2C1c1cccs1` (stereo unspecified): the AC50 under setting [1] is 15.8 µM [rising, single point].

Consider `O=c1[nH]nc(Cc2ccc(Cl)cc2)c2ccccc12`, for which, under setting [1], the half-maximal activity concentration (AC50) is 31.6 µM [rising, single point].

For `Cc1ccc(Cn2cnc3nc4c(cc3c2=O)CC(C)CC4)cc1` (stereo unspecified), the AC50 under setting [1] is 12.6 µM [rising, single point].

On to `O=C(C1CCC1)N1CCc2cc(S(=O)(=O)Nc3ccc4c(c3)OCO4)ccc21`, for which the half-maximal activity concentration (AC50) is 2.51 µM [rising, full curve] under setting [2] and 12.6 µM [rising, partial curve] under setting [1].

Consider `CCOC(=O)N/N=C(/C)c1cccc(-n2cnnn2)c1`, for which the concentration at half-maximal activity (AC50) under setting [1] was 0.2 µM [falling, full curve].

Turning to `Cc1cccc(C(=O)NNc2ncnc3c2cnn3-c2ccc(C)cc2C)c1`, the AC50 under setting [1] is 15.8 µM [rising, partial curve].

In the case of `Cc1cccc(NC(=O)C2CCCN2/C=C/C(=O)C(F)(F)F)c1C` (stereo unspecified), the AC50 under setting [1] was 8.91 µM [rising, partial curve].

For the compound `O=C(NCc1ccc(F)cc1)C1(c2cccs2)CCOCC1`, the AC50 under setting [2] is 0.0447 µM [falling, full curve, poor fit].

`CCn1c(/C=C2\C(=O)Nc3ccccc32)nc2ccccc2c1=O`: the AC50 under setting [1] was 14.1 µM [rising, single point].

As for `COc1ccc2nc(SCc3nc(N)nc(Nc4ccccc4)n3)[nH]c2c1`, the AC50 under setting [1] is 14.1 µM [rising, single point].

Take `NC(=O)c1cc2ccccc2o/c1=N/NC(=O)c1cccs1`: the AC50 under setting [2] is 0.0355 µM [rising, full curve, poor fit] and the AC50 under setting [1] is 0.562 µM [rising, full curve, poor fit].

For `CC(C)Cn1c(N)c(C(=O)COC(=O)c2cc(C3CC3)nc3ccccc23)c(=O)n(C)c1=O`, the AC50 is, setting by setting: under setting [2], 11.2 µM [rising, partial curve, poor fit]; under setting [1], 15.8 µM [rising, partial curve].

On to `Cc1ccc(NC(=O)CCn2cnc3ccccc3c2=O)cc1`, for which the AC50 by setting is: under setting [2], 3.16 µM [falling, partial curve]; under setting [1], 5.01 µM [falling, partial curve, poor fit].

In the case of `CC(=O)Nc1ccc(N2C(=O)CSC2c2cccc([N+](=O)[O-])c2)cc1` (stereo unspecified), under setting [1], the AC50 is 0.2 µM [rising, full curve, poor fit].

On to `C[C@@]12C=CC(=O)C=C1CC[C@H]1[C@H]3CC[C@](O)(C(=O)CO)[C@]3(C)CC(=O)[C@@H]12`, for which the AC50 is 1.12 µM [falling, single point] under setting [2] and 3.16 µM [falling, single point] under setting [1].

With `COc1cc(OC)c2c(=O)c(O)c(-c3ccc(OC)c(OC)c3)oc2c1`, the AC50 under setting [2] is 11.2 µM [falling, partial curve].

As for `COc1ccc(C2(C(=O)Nc3ccccc3)CCOCC2)cc1`, the AC50 under setting [2] was 0.00316 µM [falling, full curve, poor fit].

For the compound `Cc1cc(Cl)ccc1NC(=O)NC1CCN(S(=O)(=O)c2ccc(F)cc2)CC1`, the AC50 under setting [1] was 12.6 µM [rising, single point].

In the case of `CC1(OC(=O)C2CCCC2)C(=O)C=C2C=C(c3ccsc3)N(CCN3CCOCC3)C=C2C1=O` (stereo unspecified), under setting [1], the AC50 was 6.31 µM [rising, single point].

With `O=C(N/N=C/c1ccccc1O)/C(=C/c1ccccc1)CCO`, the AC50 under setting [1] is 14.1 µM [rising, partial curve, poor fit].

Consider `COc1ccc(C(=O)Cc2ccc3c(c2)OCO3)c(O)c1`, for which the AC50 under setting [1] was 0.0398 µM [falling, full curve].

For the compound `Cc1ccc(Nc2nc(CSc3nnc(-c4cccnc4)n3-c3ccccc3C)cs2)cc1`, the AC50 under setting [1] was 12.6 µM [rising, single point].

As for `COc1cccc(OC)c1OCCCOc1ccc([N+](=O)[O-])cc1Cl`, the AC50 was 35.5 µM [rising, single point] under setting [2] and 35.5 µM [rising, single point] under setting [1].

For `COc1cccc2c(=O)c3ccccc3oc12`, the AC50 is, setting by setting: under setting [2], 2.51 µM [falling, partial curve]; under setting [1], 0.316 µM [falling, full curve, poor fit].

`O=C(CS(=O)(=O)c1cn(Cc2ccc(F)cc2)c2ccccc12)N1CCCCC1`: under setting [1], the AC50 is 35.5 µM [rising, single point].

Consider `O=C(CSCc1ccccc1)N/N=C/c1cc2c(cc1Br)OCO2`, for which the AC50 under setting [1] is 11.2 µM [rising, partial curve].

`Cc1ccccc1NC(=O)c1oc2c(c1C)-c1nn(Cc3cccc(Cl)c3)cc1CC2`: the AC50 under setting [2] is 3.16 µM [rising, full curve].

For the compound `O=C(Nc1nc2c(s1)CCCC2)c1cccc(S(=O)(=O)N2CCCc3ccccc32)c1`, the AC50 under setting [2] was 11.2 µM [rising, partial curve] and the AC50 under setting [1] was 12.6 µM [rising, partial curve].

As to `C/C=C1\C2C=C(C)CC1(N)c1ccc(=O)[nH]c1C2` (stereo unspecified), under setting [2], the AC50 was 5.62 µM [falling, full curve, poor fit].
